# Source: patent publication US20230287071A1
# Target: HLA-B*44:05 (human)
# Assay: UV peptide-exchange ELISA, yield grade
row,Binder,binding
1,HELESENKKW [… (SEQ ID NO: 341)],binds
2,DEIRVFGY [DEIRVFGY (SEQ ID NO: 344)],binds
3,AENPLNIFYI [… (SEQ ID NO: 321)],binds
4,EEFCFSVRF [… (SEQ ID NO: 30)],binds
5,SETAVVNVTY [… (SEQ ID NO: 323)],binds
6,SEQHSLPVF [… (SEQ ID NO: 327)],binds
7,LENPHVQSV [… (SEQ ID NO: 347)],binds
8,NEVKEIKGY [… (SEQ ID NO: 339)],binds
9,GELAPSHGL [… (SEQ ID NO: 340)],binds
10,SEKEPGQQY [… (SEQ ID NO: 25)],binds
11,SENKKWVEF [… (SEQ ID NO: 342)],binds
12,KELEATKQYL [… (SEQ ID NO: 331)],binds
13,AENPLNIFY [… (SEQ ID NO: 320)],binds
14,SEFDLEQVW [… (SEQ ID NO: 343)],binds
15,TENPKKFKI [… (SEQ ID NO: 29)],binds
16,SETPTLQGL [… (SEQ ID NO: 335)],binds
17,EEGRVYVY [EEGRVYVY (SEQ ID NO: 351)],binds
18,RELLDFSSW [… (SEQ ID NO: 326)],binds
19,GETCVRITY [… (SEQ ID NO: 27)],binds

row,Binder,binding
1,EESSSPVDEY [… (SEQ ID NO: 26)],binds
2,TEAVLNRY [TEAVLNRY (SEQ ID NO: 356)],binds
3,REESDWHYL [… (SEQ ID NO: 322)],binds
4,AEMKFYVVI [… (SEQ ID NO: 338)],binds
5,AEYQAAILHL [… (SEQ ID NO: 345)],binds
6,LEWQHPSSW [… (SEQ ID NO: 349)],binds
7,SEVLLTSISTF [… (SEQ ID NO: 348)],binds
8,QEVNISLHY [… (SEQ ID NO: 336)],binds
9,SEPQITVNF [… (SEQ ID NO: 329)],binds
10,EEIENLQAQF [… (SEQ ID NO: 346)],binds
11,SEGTLPYSY [… (SEQ ID NO: 333)],binds
12,QEFPAHSL [QEFPAHSL (SEQ ID NO: 28)],binds
13,SEHLFGTSY [… (SEQ ID NO: 330)],binds
14,MESAKETRY [… (SEQ ID NO: 31)],binds
15,AEQEIMKKV [… (SEQ ID NO: 325)],binds
16,QELSSIRQF [… (SEQ ID NO: 324)],binds
17,SEADWLRFW [… (SEQ ID NO: 332)],binds
18,LEWQNSSSM [… (SEQ ID NO: 334)],binds
19,EELALRIGL [… (SEQ ID NO: 24)],binds

# Further lines, results first:
row,binding,Binder
1,binds,NEAEWQEIL [… (SEQ ID NO: 374)]
2,binds,TEFAVKLKI [… (SEQ ID NO: 367)]
3,binds,EECDKAFHF [… (SEQ ID NO: 363)]
4,binds,EESDYITHY [… (SEQ ID NO: 386)]
5,binds,REDPIVYEI [… (SEQ ID NO: 373)]
6,binds,KELEERMLHW [… (SEQ ID NO: 369)]
7,binds,EECGKAFKKF [… (SEQ ID NO: 366)]
8,binds,HEATFGEKRF [… (SEQ ID NO: 375)]
9,binds,TEIMEKTTL [… (SEQ ID NO: 354)]
10,binds,GEVQENYKL [… (SEQ ID NO: 387)]
11,binds,DEMENLLTY [… (SEQ ID NO: 360)]
12,binds,EDASLMGLY [… (SEQ ID NO: 361)]
13,binds,EEYKFPSLF [… (SEQ ID NO: 372)]
14,binds,GEYNKHAQLW [… (SEQ ID NO: 390)]
15,binds,QEDELVKIRKY [… (SEQ ID NO: 352)]
16,binds,QELFLQEVRM [… (SEQ ID NO: 378)]
17,binds,EECGKAFRVF [… (SEQ ID NO: 380)]
18,binds,NEIGQELTGQEW [… (SEQ ID NO: 371)]
19,binds,TEFHGGLHY [… (SEQ ID NO: 358)]
20,binds,AELMDKPLTF [… (SEQ ID NO: 357)]

row,binding,Binder
1,binds,AENRVGKMEA [… (SEQ ID NO: 379)]
2,binds,AEDARGWTA [… (SEQ ID NO: 377)]
3,binds,NEFRRKLTF [… (SEQ ID NO: 359)]
4,binds,SEVEYINKY [… (SEQ ID NO: 362)]
5,binds,KEKVPGITI [… (SEQ ID NO: 368)]
6,binds,LDGIPTAGW [… (SEQ ID NO: 384)]
7,binds,LEHPFLVNLW [… (SEQ ID NO: 385)]
8,binds,AETEEGIYW [… (SEQ ID NO: 353)]
9,binds,EECDKAYSF [… (SEQ ID NO: 364)]
10,binds,DEQRRQNVAY [… (SEQ ID NO: 389)]
11,binds,EEMERDLDMY [… (SEQ ID NO: 383)]
12,binds,SESDGIEQL [… (SEQ ID NO: 376)]
13,binds,EEVLLANALW [… (SEQ ID NO: 370)]
14,binds,SELNPLALY [… (SEQ ID NO: 382)]
15,binds,SETSTGTSV [… (SEQ ID NO: 355)]
16,binds,VEIVTIPSL [… (SEQ ID NO: 388)]
17,binds,QELMAFSFAGL [… (SEQ ID NO: 381)]
18,binds,NESGKAFNY [… (SEQ ID NO: 365)]
19,binds,EEMLENVSL [… (SEQ ID NO: 350)]

# Results are given in words; binding and its absence hold for the method and conditions named. Binding can be weak; no strength is given.
